Some of the results follow. These are further read-outs of the screen, such as a control signal, another cell line or another target. No call is given for them. Most of these compounds were active or inconclusive in the main read-out, so they are no random draw. Potencies come from curve fits of mixed quality, noted in brackets. Where a SMILES comes first, the peptide text is derived from it. The star is where a group is joined. Bz = O=C(c1ccccc1)*
Assay: qHTS Assay for Lipid Storage Modulators in Drosophila S3 Cells;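 as to cell number change: cells counted by Cell Tracker Red CMTPX staining in the red channel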
Settings: BODIPY lipid droplet fluorescence, 18-24 h; for cell number change: measured here: cell count max response, cells fed with added oleic acid
Procedure, shortened: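 Drosophila S3 cells got compounds at several concentrations plus oleic acid (400 uM solution). Laser-scanning cytometry with 488 nm excitation read lipid droplets at 500-530 nm and cells at 575-640 nm. Percent activity was relative to 20 uM Triacsin C.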

[1] = measured here: cell number channel AC50, cells fed with added oleic acid
[2] = measured here: lipid fluorescence (Fed channel) AC50, cells fed with added oleic acid

| Structure (SMILES) | cell number change | AC50 [1] | AC50 [2] |
| --- | --- | --- | --- |
| Cc1ccc(C2=NS(=O)(=O)N(C)C(C(=O)NCc3ccco3)=C2)cc1 | 4.48% |  |  |
| NC(=O)c1ccccc1NC(=O)c1cc(S(=O)(=O)N2CCCCC2)ccc1N1CCOCC1 | 4.64% | 0.651 µM [falling, single point] | 0.58 µM [falling, single point] |
| CCCCOc1ccc(OC(=O)c2cccnc2)cc1 | -43.9% | 29.1 µM [falling, single point] | 14.6 µM [falling, partial curve, poor fit] |
| Cc1nc(C)c(C(=O)N2CCCC(C(=O)c3cc(F)ccc3F)C2)s1 (stereo unspecified) | -12.7% |  | 4.11 µM [falling, single point] |
| Cc1ccccc1N=Cc1cc2c(cc1[N+](=O)[O-])OCO2 | 9.43% |  | 0.411 µM [rising, partial curve, poor fit] |
| Cc1cc(C(=O)COC(=O)C2=COCCO2)c(C)n1-c1cccc(F)c1 | 67.5% | 20.6 µM [rising, single point] |  |
| CCn1c(SCC(=O)Nc2nccs2)nnc1-c1ccccc1 | 21.2% |  |  |
| COc1ccccc1Nc1nc(=O)[nH]nc1C |  | 1.84 µM [rising, partial curve] |  |
| COc1ccc(CNc2nc3c(c(=O)n(Cc4ccc(Br)cc4)c(=O)n3C)n2C)cc1 | -5.9% | 2.59 µM [rising, single point] | 29.1 µM [falling, partial curve, poor fit] |
| O=C(/C=C/c1ccc2c(c1)OCO2)c1cccnc1 | -36.5% | 18.4 µM [falling, single point] | 4.11 µM [falling, full curve, poor fit] |
| COc1cccc(Oc2cncnc2-c2ccc(OC)cc2O)c1 | 11.1% |  | 5.17 µM [rising, full curve, poor fit] |
| C=CCc1ccc(OCCOCCNCCOC)c(OC)c1 | 23.1% |  | 16.4 µM [rising, single point] |
| CC(=O)N1c2ccc3ccccc3c2C(C)CC12CCCCC2 (stereo unspecified) | -33.9% | 16.4 µM [falling, single point] | 20.6 µM [falling, single point] |
| COC(=O)CSc1nc(C(C)C)nc2ccccc12 | 50.3% | 29.1 µM [rising, single point] |  |
| O=S(=O)(Nc1nc2ccccc2nc1N1CCc2ccccc2C1)c1ccc(Cl)cc1 | -13.5% |  |  |
| CCOc1ccc(NS(=O)(=O)c2cc(C(=O)N3CCCC3)ccc2Cl)cc1 | 34.1% | 2.31 µM [rising, full curve, poor fit] |  |
| O=c1o[nH]c(-c2ccccc2)c1C1=NCCCCC1 | 3.64% |  | 5.8 µM [rising, full curve] |
| O=C(Nc1ccccc1)C1=C[C@H](c2ccc3c(c2)OCO3)C[C@H](OCCCCO)O1 | 6.88% |  | 5.17 µM [rising, single point] |
| Cc1ccc(-c2n[nH]c(=O)c3ccccc23)cc1S(=O)(=O)Nc1ccc(F)cc1 | 7.61% |  | 6.51 µM [rising, single point] |

Three compounds from above, ordered by SMILES length, falling.

| Structure (SMILES) | cell number change | AC50 [1] | AC50 [2] |
| --- | --- | --- | --- |
| Cc1nc(C)c(C(=O)N2CCCC(C(=O)c3cc(F)ccc3F)C2)s1 (stereo unspecified) | -12.7% |  | 4.11 µM [falling, single point] |
| CCn1c(SCC(=O)Nc2nccs2)nnc1-c1ccccc1 | 21.2% |  |  |
| CCCCOc1ccc(OC(=O)c2cccnc2)cc1 | -43.9% | 29.1 µM [falling, single point] | 14.6 µM [falling, partial curve, poor fit] |

Remaining list, next part:

| Structure (SMILES) | cell number change | AC50 [1] | AC50 [2] |
| --- | --- | --- | --- |
| CCOC(=O)C1CCCN(c2c(N3CCc4ccccc4C3)c(=O)c2=O)C1 (stereo unspecified) | 11.5% |  | 0.00411 µM [falling, full curve, poor fit] |
| CCN(CC)C(=O)c1sc(NC(=O)c2ccc3c(c2)OCO3)c(C#N)c1C | 28.3% | 0.00411 µM [rising, full curve] | 1.84 µM [rising, full curve, poor fit] |
| CCc1c(C)[nH]c2c(C)cccc2c1=O |  | 0.92 µM [rising, full curve] | 1.3 µM [rising, full curve] |
| O=C(NC(Cc1ccccc1)C(=O)N1CCCC1C(=O)O)c1ccccc1 (stereo not drawn) (Bz-Phe-Pro-OH; configuration not given here) | -3.01% |  | 16.4 µM [rising, single point] |
| COc1ccc2nc(N3CCCC(C(=O)NCCCN4C(C)CCCC4C)C3)sc2c1 (stereo unspecified) | 14.4% |  | 0.58 µM [rising, single point] |
| Nc1ccc2c(c1)N=[N+]([O-])c1cc(N)ccc1C2 | 13.3% |  |  |
| CSCCC(NC(=O)COc1ccccc1)C(=O)N(C)CC(=O)Nc1ccc(C)cc1 (stereo unspecified) | 10.4% |  | 32.6 µM [falling, single point] |
| CNC(=S)Nc1cccc(Cl)c1C | 14.3% | 0.58 µM [rising, full curve, poor fit] | 0.146 µM [rising, full curve, poor fit] |
| CC(=O)Nc1ccc(NC(=O)c2c(-c3ccccc3Cl)noc2C)cc1 | -22.9% |  | 0.184 µM [falling, full curve, poor fit] |
| C=CCN(c1ccccc1)S(=O)(=O)c1cccc(C(=O)N2CCN(c3ncccn3)CC2)c1 | -12.7% |  | 29.1 µM [falling, partial curve, poor fit] |
| CCN(Cc1ccccc1)CC(O)COc1ccccc1 (stereo unspecified) | 17.8% |  | 0.58 µM [falling, partial curve, poor fit] |
| Cc1ccc(C2CN=NC23CCc2ccccc2C3=O)cc1 (stereo unspecified) | 9.79% |  | 23.1 µM [rising, partial curve, poor fit] |
| O=C(c1cccs1)N1CCN(c2ncc(Br)cn2)CC1 | 11.2% |  | 6.51 µM [rising, partial curve, poor fit] |
| COC(=O)c1ccc(OCC2c3cc(OC)c(OC)cc3CCN2C(C)=O)cc1 (stereo unspecified) | -75.2% |  |  |
| CCOc1ccc(CNC(=O)CCCC(=O)n2nc(C)c3ccccc32)cc1 | 71.3% | 20.6 µM [rising, partial curve] | 29.1 µM [rising, partial curve] |
| CC(=O)NCCOC(=O)Nc1cccnc1 | -4.22% |  | 0.00517 µM [falling, full curve, poor fit] |
| O=C(/C=C/Sc1ccccc1)c1ccc(Cl)cc1 | 5.99% | 6.51 µM [falling, single point] |  |
| COc1ccc(CN(C(=O)c2ccco2)c2ccc(Br)cc2)cc1OC | 107% | 20.6 µM [rising, partial curve] | 29.1 µM [rising, single point] |
| CCc1cccc(CC)c1NC(=O)CSc1nnc(C2CC2)n1C | -6.76% |  | 3.26 µM [rising, full curve, poor fit] |

| Structure (SMILES) | cell number change | AC50 [1] | AC50 [2] |
| --- | --- | --- | --- |
| O=C(NCc1ccncc1)c1cccc(S(=O)(=O)N2CCc3ccccc32)c1 | 2% | 0.517 µM [falling, partial curve, poor fit] | 0.517 µM [falling, full curve] |
| N#C/C(=C(/O)c1ccc([N+](=O)[O-])cc1)c1nnc2n1CCCCC2 | -31.1% |  | 8.2 µM [falling, partial curve] |
| Cn1c(SCc2c(F)cccc2Cl)nc2c(c1=O)SCC2 | 133% |  |  |
| CCc1oc(C(=O)O)cc1COC | -31.1% | 1.84 µM [falling, full curve, poor fit] | 16.4 µM [falling, partial curve] |
| CCC(C)NC(=O)CSc1nc2c(sc(=S)n2-c2cc(Cl)ccc2OC)c(=O)[nH]1 (stereo unspecified) |  | 6.51 µM [rising, single point] |  |
| C#CCN1C(=O)S/C(=C/C=C/c2ccc(N(C)C)cc2)C1=O | -46.9% | 25.9 µM [falling, single point] | 2.59 µM [falling, partial curve] |
| CC(C)N(C(=O)Cn1cnc2c(cnn2-c2ccccc2Cl)c1=O)C(C)C | 5.34% |  | 0.651 µM [falling, single point] |
| Cc1ccc(NC(=O)CSc2nc(-c3cccs3)nc3cc(=O)[nH]n23)cc1C | 38.4% | 18.4 µM [rising, single point] | 18.4 µM [rising, single point] |
| Cc1ccnc(NC(=O)CCC(=O)N(CC(=O)NCc2ccccc2)c2ccc3c(c2)OCO3)c1 | 25.5% |  | 2.31 µM [rising, partial curve] |
| Cc1ccc(C)c(N2CCN(C(=O)C3CCN(c4nc(C)cc(C)n4)CC3)CC2)c1 | -15.9% |  |  |
| O=C(CCS(=O)(=O)c1ccc(Br)cc1)N1CCN(Cc2ccccc2)CC1 | -29.6% |  | 25.9 µM [falling, partial curve, poor fit] |
| O=[N+]([O-])c1ccc(/C=C2\CCC(C3=CCCC3)=C2N2CCOCC2)cc1 | -5.95% |  | 0.651 µM [rising, single point] |
| C#CCOCCOCCOCCNc1nc(N2CCN(C(=O)CCCCCCCCCCNC(=O)Cn3cc(CCCCCN)nn3)CC2)nc(N2CCN(C(=O)CCCCCCCCCCNC(=O)[C@@H](CCC(=O)O)n3cc(CCCCCN)nn3)CC2)n1 | 7% |  | 0.184 µM [falling, full curve, poor fit] |
| CC1=C(C(=O)OCC(C)C)C(c2ccsc2)NC(=O)N1 (stereo unspecified) | -34% | 0.651 µM [falling, full curve, poor fit] | 0.651 µM [falling, full curve] |
| Cc1ccc(N2CCN(c3cc(C)nc4c5c(C)cc(C)nc5nn34)CC2)cc1 | 4.95% |  |  |
| O=[N+]([O-])c1ccccc1Nc1c2ccccc2nc2ccccc12 | -7.3% | 0.092 µM [rising, full curve, poor fit] |  |
| Cc1cc(NC(=O)CSc2nnc(CNC(=O)c3cccc(C(F)(F)F)c3)o2)no1 | 26% |  |  |
| COc1ccc(-c2cn3cccnc3n2)cc1NC(=O)Nc1cc(C)ccc1C | -81.1% | 16.4 µM [falling, single point] |  |
| CSc1nsc(SCc2ccc(F)cc2)n1 | -14.5% |  |  |
